Experimental data reported in PubChem BioAssay AID328 (DTP/NCI, 2004).
The list is a part of this screen's results and no random one: it gathers some chemical classes. Other doses and runs of a compound may be missing. T/C: endpoint of the treated group in % of that of the vehicle group. Where survival is the endpoint, this PubChem deposit counts one and a half times the control or more as active, and values a quarter to a half above the control carry no call in these data; other NCI protocols may use other cut-offs. Some T/C values are marked as having no survivor count here; that says nothing about deaths at the dose. Schedules are NCI's codes, read here as Q, the interval in days (D) or hours (H), X, the number of doses. Some doses were run more than once; the values are given in rising order.

System: BDF1 mice, P388 leukemia ip, median survival T/C
Experiment: NCI In Vivo Anticancer Drug Screen. Data for tumor model P388 Leukemia (intraperitoneal) in B6D2F1 (BDF1) mice
Details: T/C endpoint: median survival time, higher T/C = longer survival
Procedure, shortened: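 Steps: implant the tumour, treat one group with compound and another with vehicle, record survival, then divide treated by control.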

[1] = dose: 100.0 mg/kg/injection, schedule: Q04DX003 (ip), vehicle: saline with Tween-80
[2] = dose: 200.0 mg/kg/injection, schedule: Q04DX003 (ip), vehicle: saline with Tween-80

With `Cc1ccc2nc(CN(CCCl)CCCl)[nH]c2c1` the T/C (dose: 1.78 mg/kg/injection, schedule: Q01DX009 (ip), vehicle: saline) was 131 % of control [survivor count not shown], the T/C (dose: 2.66 mg/kg/injection, schedule: Q01DX009 (ip), vehicle: saline) was 140 % of control [survivor count not shown] and the T/C (dose: 4.0 mg/kg/injection, schedule: Q01DX009 (ip), vehicle: saline) was 154 % of control [survivor count not shown]. For the same compound, the T/C (dose: 5.3 mg/kg/injection, schedule: Q01DX009 (ip), vehicle: saline) was 179 % of control [survivor count not shown], the T/C (dose: 6.0 mg/kg/injection, schedule: Q01DX009 (ip), vehicle: saline) was 177 % of control [survivor count not shown] and the T/C (dose: 6.25 mg/kg/injection, schedule: Q01DX001 (ip), vehicle: saline sonified) was 124 % of control [survivor count not shown]. The T/C (dose: 6.25 mg/kg/injection, schedule: Q04DX003 (ip), vehicle: saline) was 117 % of control [survivor count not shown], the T/C (dose: 8.0 mg/kg/injection, schedule: Q01DX009 (ip), vehicle: saline) was 179 % of control [survivor count not shown] and the T/C (dose: 8.33 mg/kg/injection, schedule: Q04DX003 (ip), vehicle: saline) was 145 % of control [survivor count not shown]. For the same compound, the T/C (dose: 12.0 mg/kg/injection, schedule: Q01DX009 (ip), vehicle: saline) was 200 % of control [survivor count not shown], the T/C (dose: 12.5 mg/kg/injection, schedule: Q01DX001 (ip), vehicle: saline sonified) was 136 % of control [survivor count not shown] and the T/C (dose: 12.5 mg/kg/injection, schedule: Q04DX003 (ip), vehicle: saline) was 142 [survivor count not shown] and 177 % of control [survivor count not shown]. For the same compound, the T/C (dose: 18.7 mg/kg/injection, schedule: Q04DX003 (ip), vehicle: saline) was 186 % of control [survivor count not shown], the T/C (dose: 25.0 mg/kg/injection, schedule: Q01DX001 (ip), vehicle: saline sonified) was 124 % of control [survivor count not shown] and the T/C (dose: 25.0 mg/kg/injection, schedule: Q04DX003 (ip), vehicle: saline) was 153 % of control [survivor count not shown].
`ClCCNC(CCl)CCl` was tested, and the T/C (dose: 12.5 mg/kg/injection, schedule: Q01DX009 (ip), vehicle: saline) was 109 % of control [survivor count not shown], the T/C (dose: 25.0 mg/kg/injection, schedule: Q01DX009 (ip), vehicle: saline) was 100 % of control [survivor count not shown] and the T/C (dose: 50.0 mg/kg/injection, schedule: Q01DX009 (ip), vehicle: saline) was 108 [survivor count not shown] and 109 % of control [survivor count not shown]. The T/C (dose: 100.0 mg/kg/injection, schedule: Q04DX003 (ip), vehicle: saline) was 123 % of control [survivor count not shown].
`Oc1c(SCCCl)c(SCCCl)c(O)c(SCCCl)c1SCCCl` was tested, and the T/C (dose: 44.0 mg/kg/injection, schedule: Q04DX003 (ip), vehicle: saline with Tween-80) was 137 % of control [survivor count not shown], the T/C (dose: 66.0 mg/kg/injection, schedule: Q04DX003 (ip), vehicle: saline with Tween-80) was 137 % of control [survivor count not shown] and the T/C [1] was 133 [survivor count not shown] and 145 % of control [survivor count not shown]. For the same compound, the T/C (dose: 150.0 mg/kg/injection, schedule: Q04DX003 (ip), vehicle: saline with Tween-80) was 129 % of control [survivor count not shown], the T/C [2] was 154 % of control [survivor count not shown] and the T/C (dose: 400.0 mg/kg/injection, schedule: Q04DX003 (ip), vehicle: saline with Tween-80) was 181 % of control [survivor count not shown].
`NC1CCCCC1.NP(=O)(O)N(CCCl)CCCl` was tested, and the T/C (dose: 0.75 mg/kg/injection, schedule: Q04DX003 (ip), vehicle: saline) was 110 % of control [survivor count not shown], the T/C (dose: 1.5 mg/kg/injection, schedule: Q04DX003 (ip), vehicle: saline) was 95 % of control [survivor count not shown] and the T/C (dose: 3.0 mg/kg/injection, schedule: Q04DX003 (ip), vehicle: saline) was 105 % of control [survivor count not shown]. For the same compound, the T/C (dose: 6.25 mg/kg/injection, schedule: Q01DX009 (ip), vehicle: water) was 184 % of control [survivor count not shown], the T/C (dose: 25.0 mg/kg/injection, schedule: Q01DX009 (ip), vehicle: water) was 252 % of control [survivor count not shown] and the T/C (dose: 25.0 mg/kg/injection, schedule: Q04DX003 (ip), vehicle: saline with Tween-80) was 230 % of control [survivor count not shown]. For the same compound, the T/C (dose: 25.0 mg/kg/injection, schedule: Q08DX002 (ip), vehicle: water) was 187 % of control [survivor count not shown], the T/C (dose: 50.0 mg/kg/injection, schedule: Q01DX001 (ip), vehicle: water) was 170 % of control [survivor count not shown] and the T/C (dose: 50.0 mg/kg/injection, schedule: Q01DX009 (ip), vehicle: water) was 137 % of control [survivor count not shown]. For the same compound, the T/C (dose: 50.0 mg/kg/injection, schedule: Q04DX003 (ip), vehicle: saline with Tween-80) was 255 % of control [survivor count not shown], the T/C (dose: 50.0 mg/kg/injection, schedule: Q04DX003 (ip), vehicle: water) was 224 % of control [survivor count not shown] and the T/C [1] was 250 [survivor count not shown] and 285 % of control [survivor count not shown]. The T/C (dose: 100.0 mg/kg/injection, schedule: Q04DX003 (ip), vehicle: water) was 258 % of control [survivor count not shown], the T/C (dose: 100.0 mg/kg/injection, schedule: Q08DX002 (ip), vehicle: water) was 223 % of control [survivor count not shown] and the T/C (dose: 200.0 mg/kg/injection, schedule: Q01DX001 (ip), vehicle: water) was 264 % of control [survivor count not shown]. For the same compound, the T/C [2] was 108 % of control [survivor count not shown], the T/C (dose: 200.0 mg/kg/injection, schedule: Q04DX003 (ip), vehicle: water) was 86 % of control [survivor count not shown] and the T/C (dose: 200.0 mg/kg/injection, schedule: Q08DX002 (ip), vehicle: water) was 126 % of control [survivor count not shown].
